{
  "sequences": {"note": "Protein sequences, listed by entry. Tags and fused reporters are not part of them. Lines headed by an entry give the natural chain unless they say otherwise; changes in a name come on top.", "UniProt Q8TCJ2": "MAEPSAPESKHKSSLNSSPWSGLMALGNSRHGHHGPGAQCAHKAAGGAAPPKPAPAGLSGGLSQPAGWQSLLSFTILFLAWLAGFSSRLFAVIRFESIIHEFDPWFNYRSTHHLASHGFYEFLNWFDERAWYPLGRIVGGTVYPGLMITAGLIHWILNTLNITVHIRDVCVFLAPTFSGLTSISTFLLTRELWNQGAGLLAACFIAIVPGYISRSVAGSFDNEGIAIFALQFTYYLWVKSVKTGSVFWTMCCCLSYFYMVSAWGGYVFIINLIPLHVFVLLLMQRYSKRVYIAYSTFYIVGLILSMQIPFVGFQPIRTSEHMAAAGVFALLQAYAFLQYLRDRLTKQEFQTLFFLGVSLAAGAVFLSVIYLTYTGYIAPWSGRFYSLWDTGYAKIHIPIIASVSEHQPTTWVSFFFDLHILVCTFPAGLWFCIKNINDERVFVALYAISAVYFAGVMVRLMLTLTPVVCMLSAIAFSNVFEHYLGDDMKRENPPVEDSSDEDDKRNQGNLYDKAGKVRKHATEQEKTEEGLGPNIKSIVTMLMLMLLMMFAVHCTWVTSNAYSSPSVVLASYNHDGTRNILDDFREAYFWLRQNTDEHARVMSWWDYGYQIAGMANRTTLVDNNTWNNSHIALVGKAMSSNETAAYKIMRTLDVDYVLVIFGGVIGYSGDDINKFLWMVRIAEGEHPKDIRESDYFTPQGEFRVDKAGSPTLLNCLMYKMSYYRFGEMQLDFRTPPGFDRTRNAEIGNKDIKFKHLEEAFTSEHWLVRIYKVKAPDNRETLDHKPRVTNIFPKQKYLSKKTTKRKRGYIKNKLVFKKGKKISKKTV", "UniProt Q8TEQ8": "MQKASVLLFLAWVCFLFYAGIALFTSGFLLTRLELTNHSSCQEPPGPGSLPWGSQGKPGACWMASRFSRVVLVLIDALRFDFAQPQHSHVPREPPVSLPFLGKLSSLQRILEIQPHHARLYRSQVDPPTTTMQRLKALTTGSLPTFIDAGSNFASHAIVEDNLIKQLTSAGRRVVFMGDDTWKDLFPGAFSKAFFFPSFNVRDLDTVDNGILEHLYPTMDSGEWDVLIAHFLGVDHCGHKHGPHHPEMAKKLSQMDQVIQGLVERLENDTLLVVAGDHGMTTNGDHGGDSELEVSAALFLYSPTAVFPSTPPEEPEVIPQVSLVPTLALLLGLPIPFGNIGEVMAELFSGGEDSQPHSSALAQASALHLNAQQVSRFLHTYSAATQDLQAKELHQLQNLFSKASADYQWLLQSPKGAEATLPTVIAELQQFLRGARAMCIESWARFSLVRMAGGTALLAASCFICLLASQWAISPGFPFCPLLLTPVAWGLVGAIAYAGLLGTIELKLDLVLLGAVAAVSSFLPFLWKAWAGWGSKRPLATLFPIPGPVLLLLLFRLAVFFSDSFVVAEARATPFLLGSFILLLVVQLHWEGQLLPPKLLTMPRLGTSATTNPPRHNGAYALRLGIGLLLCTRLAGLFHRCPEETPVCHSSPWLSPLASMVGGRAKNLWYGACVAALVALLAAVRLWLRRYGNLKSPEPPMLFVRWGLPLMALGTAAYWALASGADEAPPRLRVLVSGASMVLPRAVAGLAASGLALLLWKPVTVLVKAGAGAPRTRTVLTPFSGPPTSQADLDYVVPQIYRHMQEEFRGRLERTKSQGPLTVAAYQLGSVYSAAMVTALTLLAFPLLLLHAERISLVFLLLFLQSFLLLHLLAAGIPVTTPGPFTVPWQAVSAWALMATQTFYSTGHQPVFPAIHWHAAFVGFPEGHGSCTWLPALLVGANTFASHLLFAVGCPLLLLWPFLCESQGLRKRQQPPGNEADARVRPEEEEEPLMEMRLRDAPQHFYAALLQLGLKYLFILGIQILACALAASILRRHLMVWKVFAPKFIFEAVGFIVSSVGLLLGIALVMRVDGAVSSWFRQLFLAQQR", "UniProt Q92572": "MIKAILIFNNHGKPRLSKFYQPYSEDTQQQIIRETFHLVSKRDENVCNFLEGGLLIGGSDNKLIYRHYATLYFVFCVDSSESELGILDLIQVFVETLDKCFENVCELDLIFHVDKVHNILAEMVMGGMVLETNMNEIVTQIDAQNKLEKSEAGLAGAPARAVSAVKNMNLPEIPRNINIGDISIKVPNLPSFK", "UniProt Q8WY91": "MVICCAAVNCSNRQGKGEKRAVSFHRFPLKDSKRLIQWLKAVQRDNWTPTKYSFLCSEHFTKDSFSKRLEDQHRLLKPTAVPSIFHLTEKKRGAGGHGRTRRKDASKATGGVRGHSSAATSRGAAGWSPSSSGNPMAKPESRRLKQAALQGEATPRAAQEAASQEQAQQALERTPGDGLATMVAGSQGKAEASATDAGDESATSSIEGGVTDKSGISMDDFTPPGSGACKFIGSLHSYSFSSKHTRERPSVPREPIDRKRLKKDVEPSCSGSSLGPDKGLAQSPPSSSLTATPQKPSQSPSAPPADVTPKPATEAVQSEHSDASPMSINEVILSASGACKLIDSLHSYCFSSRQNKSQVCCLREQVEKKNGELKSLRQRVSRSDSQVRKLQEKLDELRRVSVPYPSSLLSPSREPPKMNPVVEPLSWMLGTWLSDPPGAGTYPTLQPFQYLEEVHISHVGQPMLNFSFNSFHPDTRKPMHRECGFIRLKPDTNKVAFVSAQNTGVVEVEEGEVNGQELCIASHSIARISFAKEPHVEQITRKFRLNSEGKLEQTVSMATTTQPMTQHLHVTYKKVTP", "UniProt Q8WXI9": "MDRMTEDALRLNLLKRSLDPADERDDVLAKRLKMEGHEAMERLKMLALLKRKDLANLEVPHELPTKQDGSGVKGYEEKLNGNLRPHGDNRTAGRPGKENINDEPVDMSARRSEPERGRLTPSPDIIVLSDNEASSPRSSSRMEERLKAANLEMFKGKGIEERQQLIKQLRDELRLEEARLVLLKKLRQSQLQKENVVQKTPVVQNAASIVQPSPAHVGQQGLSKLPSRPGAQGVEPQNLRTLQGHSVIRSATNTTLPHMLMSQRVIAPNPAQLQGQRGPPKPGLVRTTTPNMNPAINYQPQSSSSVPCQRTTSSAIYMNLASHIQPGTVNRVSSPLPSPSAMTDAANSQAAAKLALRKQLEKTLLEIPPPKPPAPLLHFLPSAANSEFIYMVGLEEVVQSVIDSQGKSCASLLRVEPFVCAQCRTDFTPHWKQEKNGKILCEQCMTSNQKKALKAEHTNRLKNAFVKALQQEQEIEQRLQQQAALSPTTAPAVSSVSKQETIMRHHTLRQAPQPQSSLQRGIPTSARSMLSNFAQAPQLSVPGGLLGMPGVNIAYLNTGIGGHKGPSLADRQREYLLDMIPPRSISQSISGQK", "UniProt Q8WVJ2": "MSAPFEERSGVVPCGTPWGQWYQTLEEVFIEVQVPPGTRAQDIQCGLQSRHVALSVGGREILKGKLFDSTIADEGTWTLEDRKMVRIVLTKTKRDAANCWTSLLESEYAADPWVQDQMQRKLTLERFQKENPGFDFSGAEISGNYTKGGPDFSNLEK", "UniProt Q8TCA0": "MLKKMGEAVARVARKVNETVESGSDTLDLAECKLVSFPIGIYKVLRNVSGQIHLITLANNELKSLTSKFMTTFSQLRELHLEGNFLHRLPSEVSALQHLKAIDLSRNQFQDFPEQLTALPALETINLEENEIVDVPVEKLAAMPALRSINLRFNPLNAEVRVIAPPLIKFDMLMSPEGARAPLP", "UniProt Q8NG08": "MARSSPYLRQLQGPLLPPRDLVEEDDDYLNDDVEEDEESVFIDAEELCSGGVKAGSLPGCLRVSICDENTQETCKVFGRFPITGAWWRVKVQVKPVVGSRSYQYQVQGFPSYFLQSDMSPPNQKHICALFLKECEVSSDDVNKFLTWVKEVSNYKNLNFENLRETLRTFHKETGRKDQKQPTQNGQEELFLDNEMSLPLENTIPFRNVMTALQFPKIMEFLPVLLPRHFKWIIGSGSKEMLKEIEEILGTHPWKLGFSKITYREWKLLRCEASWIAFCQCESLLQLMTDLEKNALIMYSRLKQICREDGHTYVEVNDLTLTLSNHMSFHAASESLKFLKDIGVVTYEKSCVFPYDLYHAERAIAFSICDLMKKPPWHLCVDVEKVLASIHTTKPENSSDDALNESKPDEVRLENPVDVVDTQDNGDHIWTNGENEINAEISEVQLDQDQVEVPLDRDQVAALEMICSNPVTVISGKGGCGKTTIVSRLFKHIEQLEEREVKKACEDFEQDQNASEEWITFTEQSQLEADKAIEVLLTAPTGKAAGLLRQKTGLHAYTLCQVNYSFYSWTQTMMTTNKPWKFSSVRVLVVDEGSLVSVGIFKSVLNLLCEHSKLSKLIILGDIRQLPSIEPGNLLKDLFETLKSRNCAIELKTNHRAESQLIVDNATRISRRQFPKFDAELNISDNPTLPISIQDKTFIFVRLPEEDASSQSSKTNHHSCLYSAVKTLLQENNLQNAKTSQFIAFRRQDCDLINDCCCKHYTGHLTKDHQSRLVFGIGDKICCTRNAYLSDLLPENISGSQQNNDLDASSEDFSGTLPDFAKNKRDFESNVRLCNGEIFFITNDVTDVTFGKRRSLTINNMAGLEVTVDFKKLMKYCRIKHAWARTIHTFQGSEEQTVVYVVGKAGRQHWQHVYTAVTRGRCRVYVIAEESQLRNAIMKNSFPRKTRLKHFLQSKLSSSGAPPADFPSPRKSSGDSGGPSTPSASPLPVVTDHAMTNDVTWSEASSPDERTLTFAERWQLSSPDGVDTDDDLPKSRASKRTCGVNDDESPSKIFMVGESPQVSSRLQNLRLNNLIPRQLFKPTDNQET", "UniProt Q8WYN0": "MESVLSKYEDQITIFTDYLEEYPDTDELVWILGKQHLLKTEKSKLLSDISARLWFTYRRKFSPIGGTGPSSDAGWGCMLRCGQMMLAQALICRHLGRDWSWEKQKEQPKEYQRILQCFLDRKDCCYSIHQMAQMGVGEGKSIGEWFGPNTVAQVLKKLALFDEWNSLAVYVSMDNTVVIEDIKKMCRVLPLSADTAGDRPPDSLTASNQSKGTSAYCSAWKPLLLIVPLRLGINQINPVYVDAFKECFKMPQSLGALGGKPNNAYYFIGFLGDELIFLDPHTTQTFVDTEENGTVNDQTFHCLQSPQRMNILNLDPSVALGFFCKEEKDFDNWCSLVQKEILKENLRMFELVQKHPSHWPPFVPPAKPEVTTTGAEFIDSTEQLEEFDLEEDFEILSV", "UniProt Q8WUW1": "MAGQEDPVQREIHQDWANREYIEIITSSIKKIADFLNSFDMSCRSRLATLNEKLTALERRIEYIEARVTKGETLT", "UniProt Q8NHM5": "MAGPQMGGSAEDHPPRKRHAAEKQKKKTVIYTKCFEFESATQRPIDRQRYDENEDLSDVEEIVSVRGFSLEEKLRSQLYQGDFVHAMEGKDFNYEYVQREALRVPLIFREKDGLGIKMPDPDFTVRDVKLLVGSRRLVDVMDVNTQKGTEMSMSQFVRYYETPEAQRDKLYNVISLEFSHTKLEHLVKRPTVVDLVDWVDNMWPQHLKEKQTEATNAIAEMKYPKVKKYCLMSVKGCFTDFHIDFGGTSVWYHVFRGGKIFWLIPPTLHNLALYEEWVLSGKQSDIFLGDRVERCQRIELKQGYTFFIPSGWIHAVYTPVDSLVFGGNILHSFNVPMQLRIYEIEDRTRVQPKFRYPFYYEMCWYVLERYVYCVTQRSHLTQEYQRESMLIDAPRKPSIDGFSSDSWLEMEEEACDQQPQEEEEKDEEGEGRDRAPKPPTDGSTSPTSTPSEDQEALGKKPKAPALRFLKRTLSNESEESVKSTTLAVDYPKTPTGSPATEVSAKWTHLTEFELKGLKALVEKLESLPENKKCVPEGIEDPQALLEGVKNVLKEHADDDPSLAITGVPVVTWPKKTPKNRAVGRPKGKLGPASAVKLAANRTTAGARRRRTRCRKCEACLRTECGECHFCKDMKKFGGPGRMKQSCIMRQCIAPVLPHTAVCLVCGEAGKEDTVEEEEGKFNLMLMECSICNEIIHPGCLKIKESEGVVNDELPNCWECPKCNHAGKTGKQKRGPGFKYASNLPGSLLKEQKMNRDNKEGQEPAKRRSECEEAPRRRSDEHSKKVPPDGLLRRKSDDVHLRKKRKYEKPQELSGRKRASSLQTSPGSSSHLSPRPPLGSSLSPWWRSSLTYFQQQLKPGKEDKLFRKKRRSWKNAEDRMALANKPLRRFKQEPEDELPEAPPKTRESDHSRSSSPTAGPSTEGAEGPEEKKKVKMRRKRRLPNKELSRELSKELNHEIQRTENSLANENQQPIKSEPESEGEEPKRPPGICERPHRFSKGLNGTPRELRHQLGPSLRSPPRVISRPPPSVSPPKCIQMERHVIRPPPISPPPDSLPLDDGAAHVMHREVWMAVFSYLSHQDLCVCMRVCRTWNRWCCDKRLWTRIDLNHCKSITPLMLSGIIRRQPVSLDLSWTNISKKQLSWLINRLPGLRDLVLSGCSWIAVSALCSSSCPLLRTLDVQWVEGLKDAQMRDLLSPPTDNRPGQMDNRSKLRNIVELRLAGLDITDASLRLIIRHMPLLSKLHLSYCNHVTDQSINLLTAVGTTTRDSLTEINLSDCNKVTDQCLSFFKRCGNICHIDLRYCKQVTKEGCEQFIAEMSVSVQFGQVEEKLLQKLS"},
  "source": "the supplement of paper PMC6411743",
  "note": "± gives the standard deviation of the averaged measurements. Only a part is listed here, and it is no random draw. Small differences around the control level are noise.",
  "data": [
    {"compound": "Nc1ncnc2c1ncn2[C@@H]1O[C@H](COP(=O)(O)OP(=O)(O)NP(=O)(O)O)[C@@H](O)[C@H]1O [adenylyl imidodiphosphate]", "experiment": "NP40-soluble protein abundance relative to vehicle (solubility fold change) (ratio); higher = more soluble protein in presence of AMP-PNP", "conditions": "concentration: 0.1mM", "method_in_brief": "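Values are fold changes against the detergent-processed vehicle, based on vsn-normalised intensities. Jurkat crude lysate was treated at eight concentrations from 0.1 to 10 mM (10 min at room temperature, then 3 min at 37 °C), solubilised with 0.8% NP40 and benzonase, ultracentrifuged and analysed by TMT-labelled LC-MS/MS over three independent experiments.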", "values": [
      {"target": "UniProt Q8NEJ9 and related entries", "NP40-soluble protein abundance": "0.985 ± 0.058"},
      {"target": "UniProt Q8NDI1-2|Q8NDI1-3", "NP40-soluble protein abundance": "0.974 ± 0.032"},
      {"target": "STT3B (UniProt Q8TCJ2)", "NP40-soluble protein abundance": "1.02 ± 0.044"},
      {"target": "UniProt Q8TEQ8 and related entries", "NP40-soluble protein abundance": "0.993 ± 0.018"},
      {"target": "UniProt Q92572", "NP40-soluble protein abundance": "0.999 ± 0.047"},
      {"target": "THAP4 (UniProt Q8WY91)", "NP40-soluble protein abundance": "0.9862 ± 0.0022"},
      {"target": "GATAD2B (UniProt Q8WXI9)", "NP40-soluble protein abundance": "0.999 ± 0.015"},
      {"target": "NUDCD2 (UniProt Q8WVJ2)", "NP40-soluble protein abundance": "0.965 ± 0.028"},
      {"target": "PXDN (UniProt Q92626)", "NP40-soluble protein abundance": "0.984 ± 0.025"},
      {"target": "UniProt Q8TCA0 and related entries", "NP40-soluble protein abundance": "0.987 ± 0.02"},
      {"target": "UniProt Q8NDX1 and related entries", "NP40-soluble protein abundance": "1.004 ± 0.0084"},
      {"target": "UniProt Q8NHH9 and related entries", "NP40-soluble protein abundance": "1.01 ± 0.013"},
      {"target": "ANKS1A (UniProt Q92625)", "NP40-soluble protein abundance": "1.02 ± 0.032"},
      {"target": "UniProt Q8NG08 and related entries", "NP40-soluble protein abundance": "1.01 ± 0.033"},
      {"target": "PIEZO1 (UniProt Q92508)", "NP40-soluble protein abundance": "1.018 ± 0.0089"},
      {"target": "MRPS31 (UniProt Q92665)", "NP40-soluble protein abundance": "1.05 ± 0.051"},
      {"target": "UniProt Q8WYN0 and related entries", "NP40-soluble protein abundance": "0.999 ± 0.013"},
      {"target": "UniProt Q8WUW1 and related entries", "NP40-soluble protein abundance": "0.963 ± 0.045"},
      {"target": "UniProt Q8TCY9", "NP40-soluble protein abundance": "1.01 ± 0.034"},
      {"target": "HJURP (UniProt Q8NCD3)", "NP40-soluble protein abundance": "0.967 ± 0.0073"},
      {"target": "GALNT6 (UniProt Q8NCL4)", "NP40-soluble protein abundance": "1.01 ± 0.041"},
      {"target": "UniProt Q8TF01", "NP40-soluble protein abundance": "1.01 ± 0.016"},
      {"target": "UniProt Q8NHM5 and related entries", "NP40-soluble protein abundance": "0.979 ± 0.01"},
      {"target": "PIBF1 (UniProt Q8WXW3)", "NP40-soluble protein abundance": "0.9824 ± 0.0037"},
      {"target": "JADE3 (UniProt Q92613)", "NP40-soluble protein abundance": "1.01 ± 0.012"},
      {"target": "UniProt Q8WVE0", "NP40-soluble protein abundance": "1.01 ± 0.035"},
      {"target": "WDR48 (UniProt Q8TAF3)", "NP40-soluble protein abundance": "1.05 ± 0.039"},
      {"target": "UniProt Q8WUF8 and related entries", "NP40-soluble protein abundance": "0.9862 ± 0.0097"}
    ]}
  ]
}
